According to the supplement of paper PMC10849652:
Some of the results follow.

Sequences of proteins named here, by UniProt entry; tags and fusion partners are left off. A change or cut given only in a name is not applied to a line headed by its entry.
UniProt Q9BYV8: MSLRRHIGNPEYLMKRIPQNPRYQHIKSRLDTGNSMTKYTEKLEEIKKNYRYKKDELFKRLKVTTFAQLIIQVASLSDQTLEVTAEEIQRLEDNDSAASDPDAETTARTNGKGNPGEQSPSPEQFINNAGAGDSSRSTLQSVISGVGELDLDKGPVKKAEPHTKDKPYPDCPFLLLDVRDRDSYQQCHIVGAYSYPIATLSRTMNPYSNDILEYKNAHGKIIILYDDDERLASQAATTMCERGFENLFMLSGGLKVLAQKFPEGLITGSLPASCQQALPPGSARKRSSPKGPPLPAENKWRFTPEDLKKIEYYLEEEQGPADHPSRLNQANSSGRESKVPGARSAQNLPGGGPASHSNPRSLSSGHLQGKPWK
UniProt P08603, whole entry, looked up: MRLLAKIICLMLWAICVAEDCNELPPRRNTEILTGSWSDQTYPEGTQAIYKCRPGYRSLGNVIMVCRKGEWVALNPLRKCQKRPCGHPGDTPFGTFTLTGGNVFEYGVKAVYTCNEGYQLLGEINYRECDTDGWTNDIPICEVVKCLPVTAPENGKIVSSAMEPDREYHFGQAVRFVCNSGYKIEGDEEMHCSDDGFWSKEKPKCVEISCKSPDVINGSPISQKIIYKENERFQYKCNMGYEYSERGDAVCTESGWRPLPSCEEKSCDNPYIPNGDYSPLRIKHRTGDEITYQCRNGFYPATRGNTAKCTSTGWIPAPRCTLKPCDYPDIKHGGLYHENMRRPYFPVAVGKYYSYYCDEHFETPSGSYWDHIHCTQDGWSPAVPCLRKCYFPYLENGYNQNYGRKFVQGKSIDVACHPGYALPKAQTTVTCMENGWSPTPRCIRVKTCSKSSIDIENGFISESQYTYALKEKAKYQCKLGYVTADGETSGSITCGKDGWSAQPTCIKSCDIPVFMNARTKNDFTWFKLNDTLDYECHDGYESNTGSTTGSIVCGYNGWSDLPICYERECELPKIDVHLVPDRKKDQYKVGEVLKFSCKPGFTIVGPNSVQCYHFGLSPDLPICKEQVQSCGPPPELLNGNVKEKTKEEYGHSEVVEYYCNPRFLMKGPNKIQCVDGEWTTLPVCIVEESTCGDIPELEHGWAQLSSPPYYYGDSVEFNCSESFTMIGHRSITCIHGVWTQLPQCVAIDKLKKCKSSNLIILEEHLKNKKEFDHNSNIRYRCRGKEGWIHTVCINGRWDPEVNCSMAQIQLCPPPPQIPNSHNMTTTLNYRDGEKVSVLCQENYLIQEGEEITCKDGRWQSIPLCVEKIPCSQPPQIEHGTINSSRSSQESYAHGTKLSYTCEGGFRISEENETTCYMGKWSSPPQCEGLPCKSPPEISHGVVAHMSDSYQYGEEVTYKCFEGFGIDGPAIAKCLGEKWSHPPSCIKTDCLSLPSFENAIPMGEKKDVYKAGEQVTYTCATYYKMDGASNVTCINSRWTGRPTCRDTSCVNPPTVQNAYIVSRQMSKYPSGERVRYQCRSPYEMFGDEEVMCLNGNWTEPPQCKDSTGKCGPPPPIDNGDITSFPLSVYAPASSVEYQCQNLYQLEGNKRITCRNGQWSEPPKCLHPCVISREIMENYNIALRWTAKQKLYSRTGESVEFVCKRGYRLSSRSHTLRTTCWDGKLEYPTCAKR
UniProt Q5SW79: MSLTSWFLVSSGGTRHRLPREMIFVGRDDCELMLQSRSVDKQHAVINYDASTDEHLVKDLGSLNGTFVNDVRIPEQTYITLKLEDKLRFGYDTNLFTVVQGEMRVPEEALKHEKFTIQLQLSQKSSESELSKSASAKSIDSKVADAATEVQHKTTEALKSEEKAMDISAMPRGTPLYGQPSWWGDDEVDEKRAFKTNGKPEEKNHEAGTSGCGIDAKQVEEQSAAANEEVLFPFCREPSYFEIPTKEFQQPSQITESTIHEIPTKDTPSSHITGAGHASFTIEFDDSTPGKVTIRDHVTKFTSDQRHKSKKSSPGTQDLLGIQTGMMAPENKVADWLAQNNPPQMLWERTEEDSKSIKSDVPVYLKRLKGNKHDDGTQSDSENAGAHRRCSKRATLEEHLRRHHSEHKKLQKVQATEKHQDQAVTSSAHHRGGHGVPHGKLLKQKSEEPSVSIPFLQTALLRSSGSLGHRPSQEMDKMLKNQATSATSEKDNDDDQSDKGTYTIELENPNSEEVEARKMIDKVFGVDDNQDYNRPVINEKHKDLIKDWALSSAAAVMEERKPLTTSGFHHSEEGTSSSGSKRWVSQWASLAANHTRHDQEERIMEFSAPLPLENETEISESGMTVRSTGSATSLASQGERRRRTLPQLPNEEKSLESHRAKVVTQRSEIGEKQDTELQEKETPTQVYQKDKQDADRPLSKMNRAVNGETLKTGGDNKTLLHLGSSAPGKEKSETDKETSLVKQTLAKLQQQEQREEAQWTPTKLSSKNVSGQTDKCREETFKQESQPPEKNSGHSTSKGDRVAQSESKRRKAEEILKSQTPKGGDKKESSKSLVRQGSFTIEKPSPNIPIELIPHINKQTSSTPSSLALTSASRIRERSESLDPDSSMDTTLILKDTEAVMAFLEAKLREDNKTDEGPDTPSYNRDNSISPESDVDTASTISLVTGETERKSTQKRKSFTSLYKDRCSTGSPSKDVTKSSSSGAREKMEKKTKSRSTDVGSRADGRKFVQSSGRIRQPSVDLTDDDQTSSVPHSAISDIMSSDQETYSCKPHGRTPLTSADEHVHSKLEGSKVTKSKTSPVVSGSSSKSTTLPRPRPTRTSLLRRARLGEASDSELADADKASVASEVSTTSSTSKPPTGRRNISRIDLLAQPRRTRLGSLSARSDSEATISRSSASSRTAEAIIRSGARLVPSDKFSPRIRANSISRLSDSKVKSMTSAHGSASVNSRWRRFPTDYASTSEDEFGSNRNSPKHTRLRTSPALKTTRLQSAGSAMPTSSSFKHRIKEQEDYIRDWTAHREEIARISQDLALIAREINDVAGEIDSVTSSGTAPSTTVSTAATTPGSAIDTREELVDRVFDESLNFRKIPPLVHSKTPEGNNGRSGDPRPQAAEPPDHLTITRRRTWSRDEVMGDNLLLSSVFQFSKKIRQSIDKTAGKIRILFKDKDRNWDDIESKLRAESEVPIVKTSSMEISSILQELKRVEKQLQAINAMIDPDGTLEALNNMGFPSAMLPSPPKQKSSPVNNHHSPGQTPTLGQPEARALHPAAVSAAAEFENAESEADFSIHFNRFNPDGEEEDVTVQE
UniProt Q9NYV4, whole entry, looked up: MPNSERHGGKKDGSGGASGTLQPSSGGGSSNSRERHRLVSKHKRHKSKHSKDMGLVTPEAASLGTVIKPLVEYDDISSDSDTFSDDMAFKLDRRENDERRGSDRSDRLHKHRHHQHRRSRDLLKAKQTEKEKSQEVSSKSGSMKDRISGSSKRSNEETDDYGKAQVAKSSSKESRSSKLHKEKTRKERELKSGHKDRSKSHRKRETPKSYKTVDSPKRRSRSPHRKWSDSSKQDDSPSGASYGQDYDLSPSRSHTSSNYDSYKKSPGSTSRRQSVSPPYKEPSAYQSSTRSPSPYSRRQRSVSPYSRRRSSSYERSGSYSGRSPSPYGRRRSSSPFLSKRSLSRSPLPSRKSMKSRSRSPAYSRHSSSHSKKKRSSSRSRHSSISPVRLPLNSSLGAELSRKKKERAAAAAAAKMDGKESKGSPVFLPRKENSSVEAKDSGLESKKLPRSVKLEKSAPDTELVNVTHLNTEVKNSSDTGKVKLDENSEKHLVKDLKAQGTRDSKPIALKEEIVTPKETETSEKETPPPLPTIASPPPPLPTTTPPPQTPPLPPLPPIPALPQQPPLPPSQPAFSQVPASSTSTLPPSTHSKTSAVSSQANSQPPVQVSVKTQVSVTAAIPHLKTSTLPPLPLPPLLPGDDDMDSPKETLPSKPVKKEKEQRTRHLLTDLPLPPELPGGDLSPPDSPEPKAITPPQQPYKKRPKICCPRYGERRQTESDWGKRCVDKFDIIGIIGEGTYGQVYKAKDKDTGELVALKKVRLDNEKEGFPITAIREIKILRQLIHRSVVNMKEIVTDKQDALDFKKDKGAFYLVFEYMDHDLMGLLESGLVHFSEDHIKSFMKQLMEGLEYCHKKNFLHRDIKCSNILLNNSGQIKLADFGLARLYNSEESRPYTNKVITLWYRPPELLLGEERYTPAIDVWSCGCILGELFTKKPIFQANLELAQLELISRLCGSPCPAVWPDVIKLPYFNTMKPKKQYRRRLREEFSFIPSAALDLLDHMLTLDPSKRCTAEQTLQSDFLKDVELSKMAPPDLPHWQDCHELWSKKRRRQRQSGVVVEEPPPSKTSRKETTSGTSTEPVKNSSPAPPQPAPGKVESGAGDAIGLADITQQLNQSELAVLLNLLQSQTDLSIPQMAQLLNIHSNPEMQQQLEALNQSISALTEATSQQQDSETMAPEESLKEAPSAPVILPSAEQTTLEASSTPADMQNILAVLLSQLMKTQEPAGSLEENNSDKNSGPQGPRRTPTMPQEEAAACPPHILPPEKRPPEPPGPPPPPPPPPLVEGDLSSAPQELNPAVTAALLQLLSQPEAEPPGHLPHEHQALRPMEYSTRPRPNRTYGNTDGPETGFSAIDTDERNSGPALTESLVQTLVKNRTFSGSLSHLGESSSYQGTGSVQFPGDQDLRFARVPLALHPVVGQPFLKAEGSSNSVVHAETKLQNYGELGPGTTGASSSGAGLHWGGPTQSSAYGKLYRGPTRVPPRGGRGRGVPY
UniProt Q8N5B7: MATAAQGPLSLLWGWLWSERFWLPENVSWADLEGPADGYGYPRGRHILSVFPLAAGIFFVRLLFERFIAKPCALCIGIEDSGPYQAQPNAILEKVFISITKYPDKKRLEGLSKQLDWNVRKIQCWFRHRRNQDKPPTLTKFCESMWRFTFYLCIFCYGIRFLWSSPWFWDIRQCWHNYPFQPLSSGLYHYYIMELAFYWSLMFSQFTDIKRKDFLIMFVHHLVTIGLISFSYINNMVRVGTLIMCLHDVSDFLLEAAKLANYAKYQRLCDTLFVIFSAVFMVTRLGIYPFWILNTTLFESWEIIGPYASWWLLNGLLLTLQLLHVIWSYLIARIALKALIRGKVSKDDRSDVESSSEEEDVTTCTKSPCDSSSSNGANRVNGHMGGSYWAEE
UniProt P49427: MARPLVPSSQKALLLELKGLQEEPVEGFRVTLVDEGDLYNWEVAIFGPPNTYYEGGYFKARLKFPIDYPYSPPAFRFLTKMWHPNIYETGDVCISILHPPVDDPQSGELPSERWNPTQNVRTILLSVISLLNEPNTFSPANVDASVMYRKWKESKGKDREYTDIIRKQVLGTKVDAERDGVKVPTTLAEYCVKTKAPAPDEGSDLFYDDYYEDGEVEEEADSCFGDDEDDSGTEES
UniProt Q5VV42: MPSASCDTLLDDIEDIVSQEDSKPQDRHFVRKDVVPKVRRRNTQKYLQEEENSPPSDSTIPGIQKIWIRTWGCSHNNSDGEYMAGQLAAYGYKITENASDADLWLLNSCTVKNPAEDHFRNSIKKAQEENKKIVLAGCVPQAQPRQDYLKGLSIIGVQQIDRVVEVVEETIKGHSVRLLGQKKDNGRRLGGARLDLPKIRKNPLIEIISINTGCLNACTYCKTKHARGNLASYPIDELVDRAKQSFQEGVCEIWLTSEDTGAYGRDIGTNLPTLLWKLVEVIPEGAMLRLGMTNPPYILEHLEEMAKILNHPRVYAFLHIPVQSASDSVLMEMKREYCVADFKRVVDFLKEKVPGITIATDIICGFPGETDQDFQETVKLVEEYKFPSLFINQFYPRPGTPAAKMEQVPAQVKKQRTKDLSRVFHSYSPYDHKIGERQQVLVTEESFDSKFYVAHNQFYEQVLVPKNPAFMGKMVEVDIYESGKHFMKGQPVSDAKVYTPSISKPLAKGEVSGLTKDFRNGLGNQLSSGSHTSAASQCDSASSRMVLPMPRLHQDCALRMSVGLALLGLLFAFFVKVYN

Experiments:
Assay in all cases: log2 fold change, soluble protein after heating vs DMSO (PISA); higher = thermal stabilisation; K562 lysate, 10 uM; active = over 0.2 and 3.5 SD of the protein, either way, in both replicates (recomputed)
lapatinib = compound: CS(=O)(=O)CCNCc1ccc(-c2ccc3ncnc(Nc4ccc(OCc5cccc(F)c5)c(Cl)c4)c3c2)o1 [lapatinib]
Procedure, shortened: (§1)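 Following dounce homogenisation of K562 pellets in PBS pH 7.4 with 1 mM MgCl2, crude extract at 1 mg/mL protein was incubated for 30 min with 10 μM compound. Aliquots were then heated for 3 min over 48°C-58°C and pooled, NP-40 was added to 0.5% at 4°C, and soluble protein was recovered as the supernatant at 21,000xg for 90 min. Channel-sum-equalised TMTpro 16plex LC-MS/MS quantified this protein. Each value, from duplicates, is a log-two fold change in thermal stability relative to solvent controls.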

pictilisib = compound: CS(=O)(=O)N1CCN(Cc2cc3nc(-c4cccc5[nH]ncc45)nc(N4CCOCC4)c3s2)CC1 [pictilisib]
Procedure, shortened: as §1

crizotinib = compound: C[C@@H](Oc1cc(-c2cnn(C3CCNCC3)c2)cnc1N)c1c(Cl)ccc(F)c1Cl [crizotinib]
Procedure, shortened: as §1

[1] = compound: C[C@H](C1=CC=C(C=C1)C(=O)NC2=C3C=CNC3=NC=C2)N
Procedure, shortened: as §1

duvelisib = compound: C[C@H](Nc1ncnc2nc[nH]c12)c1cc2cccc(Cl)c2c(=O)n1-c1ccccc1 [duvelisib]
Procedure, shortened: as §1

gandotinib = compound: Cc1cc(Nc2cc(CN3CCOCC3)c3nc(C)c(Cc4ccc(Cl)cc4F)n3n2)n[nH]1 [gandotinib]
Procedure, shortened: as §1

tozasertib = compound: Cc1cc(Nc2cc(N3CCN(C)CC3)nc(Sc3ccc(NC(=O)C4CC4)cc3)n2)n[nH]1 [tozasertib]
Procedure, shortened: as §1

doramapimod = compound: Cc1ccc(-n2nc(C(C)(C)C)cc2NC(=O)Nc2ccc(OCCN3CCOCC3)c3ccccc23)cc1 [doramapimod]
Procedure, shortened: as §1

bafetinib = compound: Cc1ccc(NC(=O)c2ccc(CN3CC[C@H](N(C)C)C3)c(C(F)(F)F)c2)cc1Nc1nccc(-c2cncnc2)n1 [bafetinib]
Procedure, shortened: as §1

[2] = compound: Cc1cccc(CC(=O)N2CCc3c2ccc(-c2cn(C)c4ncnc(N)c24)c3F)n1
Procedure, shortened: as §1

nilotinib = compound: Cc1cn(-c2cc(NC(=O)c3ccc(C)c(Nc4nccc(-c5cccnc5)n4)c3)cc(C(F)(F)F)c2)cn1 [nilotinib]
Procedure, shortened: as §1

[3] = compound: Cc1nc(Nc2n[nH]c3c2CN(C(=O)N[C@H](CN(C)C)c2ccccc2)C3(C)C)c2sccc2n1
Procedure, shortened: as §1

dasatinib = compound: Cc1nc(Nc2ncc(C(=O)Nc3c(C)cccc3Cl)s2)cc(N2CCN(CCO)CC2)n1 [dasatinib]
Procedure, shortened: as §1

[4] = compound: Cc1ncc(-c2ccnc(Nc3ccc(S(C)(=O)=O)cc3)n2)n1C(C)C
Procedure, shortened: as §1

[5] = compound: Cn1cc(-c2ccc3c(c2)CCN3C(=O)Cc2cccc(C(F)(F)F)c2)c2c(N)ncnc21
Procedure, shortened: as §1

quisinostat = compound: Cn1cc(CNCC2CCN(c3ncc(C(=O)NO)cn3)CC2)c2ccccc21 [quisinostat]
Procedure, shortened: as §1

tipifarnib = compound: Cn1cncc1[C@@](N)(c1ccc(Cl)cc1)c1ccc2c(c1)c(-c1cccc(Cl)c1)cc(=O)n2C [tipifarnib]
Procedure, shortened: as §1

[6] = compound: NC(=O)Nc1cc(-c2cccc(F)c2)sc1C(=O)N[C@H]1CCCNC1
Procedure, shortened: as §1

[7] = compound: NC(=O)c1cnc(N[C@@H]2CCCC[C@@H]2N)nc1Nc1cccc(-n2nccn2)c1
Procedure, shortened: as §1

[8] = compound: NC1(c2ccc(-c3nc4ccn5c(=O)[nH]nc5c4cc3-c3ccccc3)cc2)CCC1
Procedure, shortened: as §1

Measured: log2 fold change

CEP41 (UniProt Q9BYV8)
inactive: lapatinib -0.017 | pictilisib 0.039 | crizotinib 0.062 | [1] 0.047 | duvelisib -0.013 | gandotinib 0.003 | tozasertib 0.086 | doramapimod 0.044 | bafetinib -0.067 | [2] 0.007 | nilotinib 0.001 | [3] 0.034 | dasatinib 0.043 | [4] -0.008 | [5] -0.077 | quisinostat -0.068 | tipifarnib -0.027 | [6] -0.128 | [7] 0.066 | [8] 0.076

CFH (UniProt P08603)
inactive: lapatinib -0.013 | pictilisib -0.053 | crizotinib 0.014 | [1] 0.176 | duvelisib -0.08 | gandotinib -0.08 | tozasertib 0.011 | doramapimod 0.025 | bafetinib -0.014 | [2] -0.121 | nilotinib 0.129 | [3] -0.016 | dasatinib 0.008 | [4] 0.209 | [5] -0.032 | quisinostat -0.01 | tipifarnib -0.033 | [6] -0.005 | [7] -0.047 | [8] -0.021

CEP170 (UniProt Q5SW79)
inactive: lapatinib 0.001 | pictilisib -0.117 | crizotinib 0.005 | [1] -0.098 | duvelisib 0.01 | gandotinib 0.005 | tozasertib 0.024 | doramapimod 0.016 | bafetinib -0.008 | [2] 0.027 | nilotinib -0.021 | [3] -0.022 | dasatinib -0.007 | [4] -0.043 | [5] 0.022 | quisinostat -0.014 | tipifarnib 0.017 | [6] -0.081 | [7] -0.005 | [8] 0.022

CDK12 (UniProt Q9NYV4)
inactive: lapatinib -0.022 | pictilisib 0.003 | crizotinib -0.019 | [1] -0.014 | duvelisib -0.012 | gandotinib -0.191 | tozasertib -0.056 | doramapimod 0.032 | bafetinib -0.031 | [2] 0.031 | nilotinib -0.013 | [3] -0.032 | dasatinib 0.009 | [4] 0.068 | [5] -0.007 | quisinostat -0.007 | tipifarnib -0.025 | [6] -0.021 | [7] -0.005 | [8] -0.01

CERS5 (UniProt Q8N5B7)
inactive: lapatinib 0.041 | pictilisib -0.09 | crizotinib 0.077 | [1] -0.066 | duvelisib 0.025 | gandotinib 0.067 | tozasertib 0.046 | doramapimod -0.043 | bafetinib 0.012 | [2] 0.033 | dasatinib 0.05 | [5] -0.046 | quisinostat -0.173 | [6] 0.031 | [7] 0.027 | [8] 0.105

CDC34 (UniProt P49427)
inactive: lapatinib -0.031 | pictilisib -0.023 | crizotinib -0.01 | [1] -0.016 | duvelisib -0.065 | gandotinib 0.004 | tozasertib 0.03 | doramapimod 0.009 | bafetinib -0.037 | [2] 0 | nilotinib -0.002 | [3] -0.018 | dasatinib -0.007 | [4] -0.015 | [5] 0.059 | quisinostat -0.022 | tipifarnib 0.033 | [6] -0.009 | [7] 0.042 | [8] 0.01

CDC27 (UniProt G5EA36)
inactive: lapatinib -0.063 | pictilisib -0.018 | crizotinib 0.09 | [1] -0.057 | duvelisib 0.047 | gandotinib -0.139 | doramapimod -0.161 | bafetinib -0.032 | [2] -0.033 | nilotinib 0.048 | [3] 0.012 | dasatinib 0.025 | [4] 0.097 | [5] 0.008 | quisinostat -0.094 | tipifarnib -0.384 | [6] 0.081 | [7] -0.281 | [8] 0.088

CDKAL1 (UniProt Q5VV42)
inactive: lapatinib -0.004 | pictilisib -0.047 | crizotinib -0.009 | [1] -0.047 | duvelisib -0.039 | gandotinib -0.038 | tozasertib 0.006 | doramapimod -0.009 | bafetinib -0.028 | [2] -0.008 | nilotinib 0.003 | [3] -0.018 | dasatinib -0.036 | [4] 0.007 | [5] 0.011 | quisinostat 0.001 | tipifarnib -0.045 | [6] 0.01 | [7] -0.002 | [8] -0.004

Reprinted from the results shown (two entries):
CDK12 (UniProt Q9NYV4)
inactive: lapatinib -0.022 | pictilisib 0.003 | crizotinib -0.019 | [1] -0.014 | duvelisib -0.012 | gandotinib -0.191 | tozasertib -0.056 | doramapimod 0.032 | bafetinib -0.031 | [2] 0.031 | nilotinib -0.013 | [3] -0.032 | dasatinib 0.009 | [4] 0.068 | [5] -0.007 | quisinostat -0.007 | tipifarnib -0.025 | [6] -0.021 | [7] -0.005 | [8] -0.01

CERS5 (UniProt Q8N5B7)
inactive: lapatinib 0.041 | pictilisib -0.09 | crizotinib 0.077 | [1] -0.066 | duvelisib 0.025 | gandotinib 0.067 | tozasertib 0.046 | doramapimod -0.043 | bafetinib 0.012 | [2] 0.033 | dasatinib 0.05 | [5] -0.046 | quisinostat -0.173 | [6] 0.031 | [7] 0.027 | [8] 0.105
